Drawing on the supplement of paper PMC8007513, this text covers growth for 22 compounds.

The other results are listed elsewhere or left out. Many values rest on one well or one pass, so single values are uncertain.

The subject of this test is Saccharomyces cerevisiae BY4743. In words: growth (OD600) with compound + IPBC relative to untreated control; higher = less growth inhibition. The note with it: compound concentration: 133 uM; IPBC concentration: 0.5 ug/ml; 20 h. As to the method:
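NMCCC compounds (133 uM) combined with IPBC (0.5 ug/ml) against Saccharomyces cerevisiae BY4743 in YPD, 96-well plates. Growth was read as OD600 at 20 h and expressed as % of the untreated control. Single pass.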
As to `COC(=O)c1sc(-n2cccc2)c(C(=O)OC)c1C` + CCCCNC(=O)OCC#CI [3-iodo-2-propynyl butylcarbamate (IPBC)], the growth is 98.4%.

On to `CSc1nncc(-c2ccc(Br)cc2)n1` + CCCCNC(=O)OCC#CI [3-iodo-2-propynyl butylcarbamate (IPBC)], for which the growth was determined as 88.9%.

In the case of `Cc1ccc(-c2nnc(SC(C)C(=O)NC(=O)NC(C)(C)C)o2)cc1C` (configuration not stated) + CCCCNC(=O)OCC#CI [3-iodo-2-propynyl butylcarbamate (IPBC)], the growth came to 89.8%.

As to `COC(=O)\C1=C\N(NC(=O)C2=CC(=CC=C2Cl)Br)C(=O)C3=CC=CC=C13` + CCCCNC(=O)OCC#CI [3-iodo-2-propynyl butylcarbamate (IPBC)], the growth was found to be 86.3%.

For the compound `CCCNC(=O)c1cc(N(C)S(=O)(=O)c2ccc(C)cc2)ccn1` + CCCCNC(=O)OCC#CI [3-iodo-2-propynyl butylcarbamate (IPBC)], the growth is 108%.

Regarding `COC(=O)CNC(=O)c1cc2ccccc2cc1OCc1c(C)noc1C` + CCCCNC(=O)OCC#CI [3-iodo-2-propynyl butylcarbamate (IPBC)], the growth stood at 98.6%.

For the compound `CC(C)NC(=O)NCCc1nc2cccnc2n1-c1ccccc1` + CCCCNC(=O)OCC#CI [3-iodo-2-propynyl butylcarbamate (IPBC)], the growth was determined as 90%.

As for `COc1ccc(-c2ccc3c(N)c(C(=O)NC(C)C)sc3n2)cc1OC` + CCCCNC(=O)OCC#CI [3-iodo-2-propynyl butylcarbamate (IPBC)], the growth came out at 98%.

Take `O=C(C1CCS(=O)(=O)C1)N1CCc2ccccc21` (configuration not stated) + CCCCNC(=O)OCC#CI [3-iodo-2-propynyl butylcarbamate (IPBC)]: the growth amounted to 97.6%.

For the compound `CC(C)OCCN1CCc2cc(S(=O)(=O)N(C)C)ccc21` + CCCCNC(=O)OCC#CI [3-iodo-2-propynyl butylcarbamate (IPBC)], the growth stood at 105%.

On to `COC(=O)c1c(C)nn(-c2ccc(F)cc2)c1-n1cccc1` + CCCCNC(=O)OCC#CI [3-iodo-2-propynyl butylcarbamate (IPBC)], for which the growth worked out at 85%.

On to `Cc1nc(-c2cccs2)c(CCC(=O)N2CCCC2)s1` + CCCCNC(=O)OCC#CI [3-iodo-2-propynyl butylcarbamate (IPBC)], for which the growth was found to be 88.5%.

In the case of `Cc1oc(-c2ccccc2)nc1COC(=O)c1ccc(S(=O)(=O)C(F)F)cc1` + CCCCNC(=O)OCC#CI [3-iodo-2-propynyl butylcarbamate (IPBC)], the growth stood at 92.7%.

For the compound `COC(=O)CCc1nc(-c2nonc2N)no1` + CCCCNC(=O)OCC#CI [3-iodo-2-propynyl butylcarbamate (IPBC)], the growth was 109%.

Take `COCCn1c(Cc2ccccc2)nnc1SCC(=O)N1CCCC1=O` + CCCCNC(=O)OCC#CI [3-iodo-2-propynyl butylcarbamate (IPBC)]: the growth is 70.9%.

On to `CCOC(=O)\C1=C(/COC(=O)C2CCN(CC2)C(=O)C3=CC=CS3)NC(=O)NC1C` (configuration not stated) + CCCCNC(=O)OCC#CI [3-iodo-2-propynyl butylcarbamate (IPBC)], for which the growth came out at 109%.

Regarding `CNC(=O)NC(=O)CSc1nnc(Nc2ccc(Oc3ccccc3)cc2)s1` + CCCCNC(=O)OCC#CI [3-iodo-2-propynyl butylcarbamate (IPBC)], the growth came to 82.8%.

Regarding `Cc1nn(C)c(C)c1CCC(=O)NCc1nnc2ccc(C(F)(F)F)cn12` + CCCCNC(=O)OCC#CI [3-iodo-2-propynyl butylcarbamate (IPBC)], the growth amounted to 108%.

As to `COC(=O)CN\1C(=O)C2=CC=CC=C2\N=C1SC(CC3=CC=C(C)C=C3)C#N` (configuration not stated) + CCCCNC(=O)OCC#CI [3-iodo-2-propynyl butylcarbamate (IPBC)], the growth is 105%.

As to `COC1=CC=C(CCNC(=O)\C2=C\C3=C(CS2)C(=C(C)S3)C)C=C1OC` + CCCCNC(=O)OCC#CI [3-iodo-2-propynyl butylcarbamate (IPBC)], the growth came to 92.2%.

Consider `CCS(=O)(=O)c1ccc2oc(SCC(=O)N3CC(C)OC(C)C3)nc2c1` (configuration not stated) + CCCCNC(=O)OCC#CI [3-iodo-2-propynyl butylcarbamate (IPBC)], for which the growth was found to be 87.6%.

Consider `CC(C)CCNC(=O)c1cnn2c(C(F)(F)F)cc(-c3cccs3)nc12` + CCCCNC(=O)OCC#CI [3-iodo-2-propynyl butylcarbamate (IPBC)], for which the growth worked out at 84.4%.
